Laboratory results: ChEMBL document CHEMBL1151922, “Structure-activity relationships of 3,5-disubstituted benzamides as glucokinase activators with potent in vivo efficacy” (Bioorg Med Chem, 2009)

Experiment: Octanol-water distribution coefficient, log D at pH 7.4 by HPLC-MS analysis

| Structure (SMILES) | logD |
| --- | --- |
| CC(CO)Oc1cc(Oc2ccc(S(C)(=O)=O)cc2)cc(C(=O)Nc2nccs2)c1 (configuration not stated) | 2.7 |
| C[C@@H](CO)Oc1cc(Oc2ccc(S(C)(=O)=O)cc2)cc(C(=O)Nc2nccs2)c1 | 2.7 |
